Results: PubChem BioAssay AID485314 (National Center for Advancing Translational Sciences (NCATS), 2010)
About 4,500 (1.3%) of roughly 340,000 compounds were called active. The inconclusive results got no clear call from the source; some entries with a clear call stand among them for comparison. Calls follow the shape of the dose curve; as a rule, active = well fitted inhibition curve with a large enough effect; inconclusive = small, poorly fitted or top-dose-only effect, or another doubt; inactive = no such curve, though single readings can be large or run the other way. Potencies beside an inconclusive call are fits to weak or partial responses and may not hold up.

Biological target: DNA polymerase beta (Homo sapiens) (UniProt P06746)
Experiment: qHTS Assay for Inhibitors of DNA Polymerase Beta
Conditions: Pol beta primer extension/strand displacement, fluorescence kinetic; activity change, negative = inhibition: at 114 µM (top of the series)
Method in brief: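 Values derive from four-parameter Hill fits of normalized kinetic data: reads at 0 and 10 min following addition of 50 nM substrate to 10 nM Pol beta preincubated 15 min with compound.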
% is scaled to controls: 0 for no effect and ±100 for the full control effect; potency is read from the fitted curve at half-maximal effect.

Row | Compound | Potency | activity change, negative = inhibition
1 | Cc1ccc(C)c(N2CCN(C(=O)CCC(=O)N3CCOc4ccc(Cl)cc43)CC2)c1 | inconclusive: 0.891 µM [inhibitor, full curve, poor fit] | –
2 | CC(C(=O)Nc1cc(Cl)cc(Cl)c1)N1CCCC1 (centres undefined) | – | inactive: 1.45%
3 | CC1(C)c2ccccc2N(CC(N)=O)C12C=Cc1ccccc1O2 (centres undefined) | – | inactive: 5.83%
4 | O=C(O)c1cc(N/N=C/C(Cl)=C/c2ccccc2)ccc1Cl | inconclusive: 50.1 µM [inhibitor, single point] | –
5 | CCCSc1nc(-c2ccccc2)[nH]c1S(=O)(=O)c1ccc(C)cc1 | – | inactive: 7.95%
6 | COc1ccc(-c2n[nH]c3c2cnc2ccc(F)cc23)cc1 | – | inactive: 6.67%
7 | COc1ccc(-c2cc3ccc(O)c(CN4CCCC4)c3oc2=O)cc1 | – | inactive: -19.1%
8 | COc1cc(/C=C2/SC(=S)NC2=O)ccc1OS(=O)(=O)c1ccc(C)cc1 | active: 35.5 µM | –
9 | O=C(NNC(=O)c1ccc([N+](=O)[O-])cc1)c1ccc(Br)cc1 | inconclusive: 63.1 µM [inhibitor, single point] | –
10 | COc1ccc(Cl)cc1N(C(=O)c1ccco1)C(C(=O)NC1CCCC1)c1ccco1 (centres undefined) | inconclusive: 1 µM [inhibitor, full curve, poor fit] | –
11 | Brc1ccc(C2=Nc3ccccc3C(c3ccncc3)=NN2)cc1 | inconclusive: 3.98 µM [inhibitor, single point] | –
12 | COc1ccc(CCNC(=O)c2ccc(Cn3c(=O)c4ccccc4n(Cc4cccc(F)c4)c3=O)cc2)cc1OC | inconclusive: 25.1 µM [inhibitor, single point] | –
13 | COC(=O)Cc1csc(Nc2ccccc2Cl)n1 | inconclusive: 89.1 µM [inhibitor, single point] | –
14 | CCn1nc(CC(=O)Nc2ccc(-n3cnnn3)c(OC)c2)c2ccccc2c1=O | active: 31.6 µM | –
15 | CCC(=O)OC1(C)C(=O)C=C2C=C(c3ccsc3)OC=C2C1=O (centres undefined) | active: 50.1 µM | –
16 | CCN(CC)C(=O)CSc1nc2ccc(NC(=O)CSc3nccn3C)cc2s1 | active: 5.62 µM | –
17 | Cc1ccc(-n2c(O)c(C=NC3CCS(=O)(=O)C3)c3ccccc3c2=O)cc1C (centres undefined) | – | inactive: 0.383%
18 | CCc1cccc(C)c1NC(=O)Cn1nnc(-c2nc(-c3ccccc3F)no2)c1N | inconclusive: 44.7 µM [inhibitor, partial curve, poor fit] | –
19 | Cn1cc(S(=O)(=O)N2CCCCCC2)cc1C(=O)Nc1ccc(Cl)c(C(F)(F)F)c1 | inconclusive: 89.1 µM [inhibitor, single point] | –
20 | S=c1[nH]ccn1CCc1ccccc1 | inconclusive: 89.1 µM [inhibitor, single point] | –
21 | CCOC(=O)C1=C(C)N=C2SC(C(=O)OC)=CC(=O)N2C1c1ccc(F)cc1 (centres undefined) | inconclusive: 35.5 µM [inhibitor, single point] | –
22 | CCC(C)c1ccc(OCC(=O)Nc2ccc3c(c2)C(=O)NC3=O)cc1 (centres undefined) | active: 35.5 µM | –
23 | COC(=O)c1ccc(C)c(NC(=O)CN2C(=O)c3ccccc3S2(=O)=O)c1 | inconclusive: 0.112 µM [inhibitor, full curve] | –

Row | Compound | Potency | activity change, negative = inhibition
24 | CCOC(=O)c1ccc(N=C2SC(C(=O)NCCc3ccccc3)CC(=O)N2C)cc1 (centres undefined) | inconclusive: 0.891 µM [inhibitor, full curve, poor fit] | –
25 | c1ccc(Oc2nc(-c3cccnc3)nc3ccccc23)cc1 | inconclusive: 89.1 µM [inhibitor, single point] | –
26 | COc1cc(/C=N/N=C(N)N)ccc1OCc1ccc(Cl)cc1 | inconclusive: 31.6 µM [inhibitor, partial curve] | –
27 | Cc1cccc(OCC(=O)NCC(=O)N/N=C/c2ccc([N+](=O)[O-])cc2)c1 | inconclusive: 11.2 µM [inhibitor, partial curve] | –
28 | Cc1oc2c(c1C(=O)Nc1ccc(OC(F)(F)F)cc1)C1=NCCN1C=N2 | – | inactive: 33.6%
29 | O=C(Nc1cccc([N+](=O)[O-])c1)Nc1cccc([N+](=O)[O-])c1 | inconclusive: 20 µM [inhibitor, partial curve] | –
30 | CCN(CC)c1ccc(/C=N/NC(=O)c2ccc3nc[nH]c3c2)cc1 | inconclusive: 89.1 µM [inhibitor, single point] | –
31 | Cc1cccc(OCc2nnc(SC(C)C(=O)O)n2-c2ccccc2)c1 (centres undefined) | – | inactive: 2.08%
32 | COc1ccc(CNc2nc3c(c(=O)[nH]c(=O)n3C)n2Cc2ccccc2C)cc1 | inconclusive: 22.4 µM [inhibitor, full curve] | –
33 | COc1ccc(C(=O)/C=C/c2cn(CC(O)CN3CCCCCC3)c3ccccc23)cc1OC (centres undefined) | inconclusive: 15.8 µM [inhibitor, full curve, poor fit] | –
34 | Cc1ccc(C(=O)c2oc3ccccc3c2NC(=O)COc2ccccc2C)cc1 | – | inactive: 13.6%
35 | CCOC(=O)C1(Cc2cccc(F)c2)CCN(C(=O)COC)CC1 | – | inactive: 11.4%
36 | CCN1/C(=C\c2ccc3ccccc3[n+]2CC)Sc2cc(C)ccc21 | active: 25.1 µM | –
37 | Cc1onc(-c2ccccc2)c1C(=O)Nc1ccc(Cl)cn1 | inconclusive: 89.1 µM [inhibitor, single point] | –
38 | Cc1ccc(-n2cccc2/C=C2/C(=N)N3C(=NC2=O)SN=C3S(C)(=O)=O)cc1Cl | active: 28.2 µM | –
39 | CC1CCc2c(sc(NC(=O)COC(=O)c3ccc(O)cc3)c2C#N)C1 (centres undefined) | inconclusive: 10 µM [inhibitor, partial curve] | –
40 | CCC1=NN2C(=N)/C(=C\c3cccn3-c3cccc(Cl)c3)C(=O)N=C2S1 | active: 22.4 µM | –
41 | COc1ccc(C(C(=O)NC2CCCC2)N(Cc2ccccc2)C(=O)c2nsc(Cl)c2Cl)cc1 (centres undefined) | inconclusive: 89.1 µM [inhibitor, single point] | –
42 | CC(=O)N1CCN(CC(O)COc2ccc(OCc3ccccc3)cc2)CC1 (centres undefined) | inconclusive: 89.1 µM [inhibitor, single point] | –
43 | Cc1ccccc1CNC(=O)CN1C(=O)CCCc2ccccc21 | inconclusive: 0.141 µM [inhibitor, full curve, poor fit] | –
44 | COc1ccc(CCNC(=O)CCCn2c(=O)c3ccccc3n(CC(=O)Nc3ccccc3C)c2=O)cc1OC | inconclusive: 89.1 µM [inhibitor, single point] | –
45 | O=C(CN1CCN(Cc2ccc(F)cc2)C1=O)NCc1ccc(F)cc1 | – | inactive: 0.844%
46 | COc1ccc(Cn2c(SCC(=O)N3CCN(c4ccc(F)cc4)CC3)nc3ccccc32)cc1 | – | inactive: 0.754%

Row | Compound | Potency | activity change, negative = inhibition
47 | CCCc1nc2c(C)ccc(C)c2c(N)c1CC | inconclusive: 79.4 µM [inhibitor, single point] | –
48 | COc1ccc(CSc2cccc3cccnc23)cc1[N+](=O)[O-] | inconclusive: 3.16 µM [inhibitor, full curve, poor fit] | –
49 | O=C(O)c1cccc(NC(=S)NC(NC(=O)c2cccc([N+](=O)[O-])c2)C(Cl)(Cl)Cl)c1 (centres undefined) | – | inconclusive: -72.2% [inhibitor]
50 | CCN(Cc1ccccc1)c1nc2c(S(=O)(=O)c3ccccc3)nnn2c2ccc(Cl)cc12 | – | inactive: -12.4%
51 | CCC(C)NC(=O)CCCn1c(=O)c2cccn2c2ccccc21 (centres undefined) | inconclusive: 39.8 µM [inhibitor, partial curve, poor fit] | –
52 | O=C(CCc1ccccc1)Nc1nc2n(n1)C(c1ccc(Cl)cc1)CC(=O)N2 (centres undefined) | inconclusive: 44.7 µM [inhibitor, single point] | –
53 | O=C1NC2(CCCCCC2)Cc2ccccc21 | inconclusive: 1.58 µM [inhibitor, partial curve, poor fit] | –
54 | CCC(C(=O)NC1CCCCC1)n1c(SCc2ccccc2F)nc2ccncc21 (centres undefined) | inconclusive: 39.8 µM [inhibitor, single point] | –
55 | COc1cccc(/C=C(/C#N)c2ccc(F)cc2)c1OCc1cccc(C(=O)O)c1 | active: 39.8 µM | –
56 | CC1(C)C(C=C(Cl)Cl)C1C(=O)N1CCN(c2ccccc2)CC1 (centres undefined) | inconclusive: 35.5 µM [inhibitor, partial curve] | –
57 | CCOc1ccc(NC(=O)C2CC=CCC2C(=O)O)cc1 (centres undefined) | inconclusive: 39.8 µM [inhibitor, partial curve] | –
58 | COc1ccc(CNCc2c(C(=O)O)c(C)n(Cc3ccccc3C)c2C)cc1OC | – | inactive: 17.9%
59 | Cc1ccc(NS(=O)(=O)c2ccc(N/N=C/c3ccccc3OCC(=O)O)c([N+](=O)[O-])c2)c(C)c1 | – | inconclusive: -65.2% [inhibitor]
60 | CCc1ccc(C(c2ccccc2)c2c(C)[nH]c3ccccc23)s1 (centres undefined) | – | inactive: 4.91%
61 | Cc1ccc(CN2C(=O)N/C(=C/c3ccc(-c4ccc(C(=O)O)cc4)o3)C2=O)cc1 | – | inconclusive: -44.2% [inhibitor]
62 | CN1CCN(C(=S)c2ccc(Br)cc2)CC1 | – | inactive: 2.52% [at 57.1 µM]
63 | S=c1[nH]nc(-c2ccco2)n1/N=C/C(Cl)=C/c1ccccc1 | inconclusive: 89.1 µM [inhibitor, single point] | –
64 | Cc1ccc2c(=O)c(C(=O)c3ccccc3)cn(CC(=O)NCc3ccccc3)c2n1 | inconclusive: 39.8 µM [inhibitor, partial curve] | –
65 | CCOc1ccc(NC(=O)CSc2ncc(S(=O)(=O)c3ccc(F)c(C)c3)c(=O)[nH]2)cc1 | – | inactive: 7.54%
66 | N#Cc1nc(-c2ccc(COc3ccc(Cl)cc3)o2)oc1N1CCCCC1 | inconclusive: 89.1 µM [inhibitor, single point] | –
67 | O=Cc1c(C(=O)O)n(CC(=O)O)c2ccccc12 | inconclusive: 15.8 µM [inhibitor, single point] | –
68 | Cc1c(C(=O)N2CCCC2)oc2c1-c1nn(CC(=O)NCc3ccc(OC(C)C)cc3)cc1CC2 | – | inactive: 2.91%
69 | COc1cccc2oc3cc(C#Cc4ccccn4)ccc3c(=O)c12 | inconclusive: 39.8 µM [inhibitor, single point] | –

Four of the compounds above, in markdown:

| Row | Compound | Potency | activity change, negative = inhibition |
| --- | --- | --- | --- |
| 27 | Cc1cccc(OCC(=O)NCC(=O)N/N=C/c2ccc([N+](=O)[O-])cc2)c1 | inconclusive: 11.2 µM [inhibitor, partial curve] | – |
| 28 | Cc1oc2c(c1C(=O)Nc1ccc(OC(F)(F)F)cc1)C1=NCCN1C=N2 | – | inactive: 33.6% |
| 29 | O=C(Nc1cccc([N+](=O)[O-])c1)Nc1cccc([N+](=O)[O-])c1 | inconclusive: 20 µM [inhibitor, partial curve] | – |
| 30 | CCN(CC)c1ccc(/C=N/NC(=O)c2ccc3nc[nH]c3c2)cc1 | inconclusive: 89.1 µM [inhibitor, single point] | – |
